This note sets out measurements from PMC7192585.

Amino acid sequences for entries named in this document (tags omitted).
UniProt P05412: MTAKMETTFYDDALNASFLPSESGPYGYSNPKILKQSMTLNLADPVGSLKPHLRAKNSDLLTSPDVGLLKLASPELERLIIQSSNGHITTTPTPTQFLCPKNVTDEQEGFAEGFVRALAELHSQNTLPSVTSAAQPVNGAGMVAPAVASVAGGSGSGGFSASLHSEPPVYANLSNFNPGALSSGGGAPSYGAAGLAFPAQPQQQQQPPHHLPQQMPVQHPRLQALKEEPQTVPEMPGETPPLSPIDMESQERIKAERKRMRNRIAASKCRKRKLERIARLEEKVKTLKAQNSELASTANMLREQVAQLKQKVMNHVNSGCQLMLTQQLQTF
UniProt Q16659: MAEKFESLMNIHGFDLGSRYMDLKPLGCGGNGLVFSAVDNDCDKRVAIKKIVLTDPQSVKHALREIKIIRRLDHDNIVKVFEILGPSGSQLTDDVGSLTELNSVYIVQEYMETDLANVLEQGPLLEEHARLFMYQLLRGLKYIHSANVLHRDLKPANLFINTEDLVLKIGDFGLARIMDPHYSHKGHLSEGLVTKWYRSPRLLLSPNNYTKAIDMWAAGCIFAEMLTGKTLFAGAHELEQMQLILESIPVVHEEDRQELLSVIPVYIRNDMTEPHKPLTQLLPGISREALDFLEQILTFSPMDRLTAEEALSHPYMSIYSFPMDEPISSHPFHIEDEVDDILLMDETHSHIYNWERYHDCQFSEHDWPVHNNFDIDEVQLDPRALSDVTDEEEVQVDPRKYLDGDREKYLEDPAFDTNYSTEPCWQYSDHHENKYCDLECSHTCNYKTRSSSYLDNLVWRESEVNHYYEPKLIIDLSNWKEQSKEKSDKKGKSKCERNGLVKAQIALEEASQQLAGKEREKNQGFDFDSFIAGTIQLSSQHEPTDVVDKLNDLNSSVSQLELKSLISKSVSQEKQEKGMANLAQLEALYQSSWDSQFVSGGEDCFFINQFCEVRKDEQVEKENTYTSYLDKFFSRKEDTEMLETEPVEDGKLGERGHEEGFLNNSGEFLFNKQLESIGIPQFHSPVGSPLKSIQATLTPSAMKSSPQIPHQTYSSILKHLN

Results are given in words; binding and its absence hold for the method and conditions named. In cells and extracts the contact can be indirect. Some binding calls cover weakened binding; strength is not graded here.

In experiment [1] the target is c-Jun, endogenous (human (endogenous in HT-29)) (UniProt P05412). Nature of the experiment: co-IP; endogenous proteins; HT-29 cells unstimulated or stimulated with LPS (200 ng/ml, 4 hr, medium without FBS); lysed in IP buffer (10 mM HEPES pH 7.4, 150 mM NaCl, 1% Triton X-100); lysate with c-Jun, ERK3 or Normal Rabbit IgG antibody and Protein A/G-Agarose beads, 2 hr at 4°C; immunoblot.

Experiment [2] deals with ERK3 (MAPK6), endogenous (human (endogenous in HT-29)) (UniProt Q16659). The experiment is described as above.

Regarding “ERK3 (MAPK6), endogenous (from UniProt Q16659 1-721)”, in experiment [1], the binding entry is reported as “binds”. With “c-Jun, endogenous (from UniProt P05412 1-331)”, the binding result in experiment [2] is recorded as “binds”.
